About 60 (5%) of roughly 1,200 compounds were called active. Inconclusive results (about 1%) are left out.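 The calls were made as follows: active = Decreasing signal and fitted IC50 at most twice the top valid tested dose; inconclusive = Bad fit or a level curve showing 30 to 70% inhibition; inactive = the rest.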 The list shows a part of the results. Entries with a potency or affinity are not part of this list.
Molecular target: NAD-dependent protein deacylase sirtuin-5, mitochondrial (Homo sapiens) (UniProt Q9NXA8)
Assay: SIRT5 desuccinylase inhibitors, dose response, biochemical, fluorescence imaging, cherry-pick, set 5 (AID 720591);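 also: 0% = median of neutral control wells and -100% = median of positive control wells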
Details: Purified SirT5, succinyl-peptide AMC, trypsin-coupled fluorescence; at 15 µM (top of the series) unless noted

Amino acid sequences for entries named in this document (tags omitted). A change or cut given only in a name is not applied to a line headed by its entry.
UniProt Q9NXA8: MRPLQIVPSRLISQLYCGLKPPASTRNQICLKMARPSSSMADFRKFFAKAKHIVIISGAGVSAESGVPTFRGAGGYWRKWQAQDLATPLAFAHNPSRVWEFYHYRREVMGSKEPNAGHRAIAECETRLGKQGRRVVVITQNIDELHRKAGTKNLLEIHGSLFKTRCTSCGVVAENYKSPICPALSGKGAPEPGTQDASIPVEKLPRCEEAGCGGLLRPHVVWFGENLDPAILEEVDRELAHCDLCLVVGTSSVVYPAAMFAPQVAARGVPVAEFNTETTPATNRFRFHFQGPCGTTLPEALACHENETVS

Activity change, negative = inhibition, inactive:
CCOc1ccc(CN2CCN(C(=O)c3cccc(F)c3)CC2)cc1 8.06%
CCCCNC(=O)CC1C(=O)N(Cc2ccccc2)C(C)c2nc3ccccc3n21 (stereo unspecified) -23.2%
O=C(COc1ccc(Cl)cc1Cl)Nc1ccc(CN2CCCCC2)cc1 -36%
CC(C)(C)C(=O)Oc1cccc(Nc2ncnc3ccccc23)c1 -14.3%
Cc1ccc(NC(=O)COCC(=O)Nc2ccc(F)cc2)cc1 36%
COc1ccc(CN2CCN(C3CCC3)CC2CCO)c(C)c1C (stereo unspecified) -18.5%
Oc1ccc(-c2nccc(-c3ccc(Cl)cc3Cl)n2)cc1 -31.7%
O=C(NCC(c1ccco1)N1CCN(c2ccccc2F)CC1)C1CCCCC1 (stereo unspecified) 2.44%
O=C(CCCl)Nc1nnc(SCC(=O)NC2CCCC2)s1 1.62%
C=CCNc1nc2c(c(=O)[nH]c(=O)n2C)n1Cc1cccc(C)c1 -16.2%
Cc1ccc(-c2ccc(=O)n(CC(=O)Nc3ccc4c(c3)OCCO4)n2)cc1 16.6%
Cc1cccc(NC(=O)c2nc[nH]c2C(=O)NC[C@H](C)O)c1 -25%
C[C@@H]1CN([C@@H](C)CO)C(=O)c2cc(NC(=O)C3CC3)ccc2O[C@H]1CN(C)C -30.2%
Cc1noc(C)c1COc1ccc(C(=O)N2CCN(S(=O)(=O)c3cccc(F)c3)CC2)cc1 -6.62%
COC(=O)c1cn(C(=O)c2ccccc2Cl)c2ccccc12 30.1%
COc1ccc(S(=O)(=O)N2CCCCCC2)cc1C(=O)N(C)CC(=O)Nc1ccc(F)cc1 3.48%
O=C(c1cccc(F)c1)N1CCCC(C(=O)N2CCCCCC2)C1 (stereo unspecified) 16.1%
CC1(C)NC(=O)N(CCOCCOc2ccccc2-c2ccccc2)C1=O 8%
CCN(CC(=O)Nc1cc(Cl)ccc1-n1cncn1)Cc1nc2ccccc2c(=O)[nH]1 -29.4%
CC1c2nc3ccccc3n2C(CC(=O)NC2CC2)C(=O)N1Cc1ccccc1 (stereo unspecified) 4.72%
COc1ccc(CN(C(=O)c2ccco2)c2ccccc2)cc1 13.5%
Cc1ccc(N(CC(=O)NC(C)(C)C)C(=O)CS(=O)CC(=O)Nc2ccc(F)cc2)cc1 (stereo unspecified) -30%
O=C(COC(=O)CNC(=O)c1ccccc1)NC(=O)NC1CCCCC1 -17.8%
Cc1ccc(N(C(=O)CS(=O)CC(=O)Nc2ccc(F)cc2)C(C)C(=O)NC(C)(C)C)cc1 (stereo unspecified) -21.8%
CCOc1ccc2nc(SCC(=O)NCc3ccc(OC)cc3)[nH]c2c1 -23.5%
CC(=O)Nc1cccc(-c2nn[nH]n2)c1 6.01%
COc1ccccc1N1CCN(CC(=O)Nc2c(C)n(C)n(-c3ccccc3)c2=O)CC1 -25.9%
Cc1ccn2cc(CSc3ccccc3)nc2c1 6.69%
Cc1cc(C)cc(N(C(=O)c2csnn2)C(C(=O)NC(C)(C)C)c2ccccn2)c1 (stereo unspecified) 4.39%
Cc1cc(C)cc(N(C(=O)CCC(=O)Nc2cc(C)on2)C(C(=O)NC2CCCC2)c2ccco2)c1 (stereo unspecified) -2.73%
O=C(O)c1cc(Cl)ccc1-c1ccc(/C=C/c2cc(C(F)(F)F)[nH]c(=O)n2)o1 -4.33%
Fc1ccccc1Cc1noc(CN2CCCC(CN3CCOCC3)C2)n1 (stereo unspecified) -4.94%
Cc1ccc(CNC(=O)CCCCCNC(=O)N2CCn3c2nc2ccccc23)cc1 -20.1%
COc1ccc(C(=O)C2CCCN(S(=O)(=O)C(C)C)C2)c(C)c1 (stereo unspecified) -23%
COc1ccc(CN2CCN(CCCc3ccccc3)C(CCO)C2)c(OC)c1 (stereo unspecified) 20.8%
Cc1ccc2c(c1)CO[C@@]21O[C@H](CCO)C[C@H](O)[C@H]1O 3.11%
Cc1onc(-c2ccccc2)c1C(=O)c1c[nH]c(C(=O)NCc2ccccn2)c1 -14.3%
Cc1ccc(S(=O)(=O)N2CCOCC2)cc1NC(=O)CSc1nnc2n1CCCCC2 -29.9%
Cc1sc(NC(=O)c2ccco2)c(C(c2ccccc2)N2CCC(C)CC2)c1C (stereo unspecified) -24.6%
CCCCOC(=O)c1sc2nc(N3CCOCC3)c3c(c2c1N)CC(C)(C)OC3 15.6%
Nc1nc(-c2ccc(C(=O)O)cc2)cs1 -22.5%
Cc1ccc(C(C(=O)NC(C)(C)C)N(Cc2ccco2)C(=O)CCC(=O)Nc2ccccn2)cc1 (stereo unspecified) -11.8%
CC(C)(C)N(Cc1ccccc1)C(=O)c1ccc(Br)o1 4.01%
C[C@H](CO)N1C[C@H](C)[C@@H](CN(C)CC2CC2)Oc2c(NC(=O)Cc3ccccc3)cccc2C1=O -31.4%
CC(NC(=O)c1ccncc1)C(c1cccs1)N1CCOCC1 (stereo unspecified) 22.9%
COc1cccc(-c2ccc3c(c2)O[C@H](CN(C)C(=O)c2ccccc2F)[C@H](C)CN([C@H](C)CO)S3(=O)=O)c1 -23.4%
O=C(COc1ccc(Cl)cc1Cl)Nc1ccc(CN2CCOCC2)cc1 5.05%
CCCCn1c(N)c(N(CCOC)C(=O)c2c(CC)noc2C)c(=O)[nH]c1=O -31.8%
CCOc1ccc(-c2noc(CCCC(=O)NC3CCCC3)n2)cc1OC 1.29%
Cc1csc(NC(=O)c2cc3ccccc3o2)n1 12.3%
O=C(Nc1cccc(Cl)c1)Nc1cccc(C(=O)O)c1 -26.9%
C/C(N)=C(/C#N)C(=O)CSc1nnc(Nc2ccccc2)s1 -26.5%
COc1ccc(S(=O)(=O)N2CCOc3ccccc32)cc1 -30%
CC(=O)c1cc(-c2ccc(F)cc2)n(CCC(=O)NC(C)(C)C)c1C 40.1%
CCOc1ccc(C(C)C)cc1S(=O)(=O)n1ccnc1C -11.2%
CCCc1cc(=O)oc2cc(C)cc(OCC(=O)NCCCN3CCCC3=O)c12 -12.3%
COc1ccc2cc3cc(C(=O)NCCCN4CCc5ccccc5C4)sc3nc2c1 -24.2%
COc1cnn(-c2ccc(Br)cc2)c(=O)c1SCc1ccccc1 -23.7%
Cc1cc(C)n(CC(=O)c2cccc(N)c2)n1 8.12%
Cc1ccc(OCCNC(=O)C2CCCCC2)cc1 7.97%
Cc1ccc2nc(SC(C)C(=O)N3CC(C)OC(C)C3)[nH]c2c1 (stereo unspecified) 11%
Cc1c(Cc2ccc3c(c2)OCO3)sc(NC(=O)c2ccccc2)c1C(N)=O -11.1%
CC(C)(C)OC(=O)NCCCC[C@H](NC(=O)c1nc[nH]c1C(=O)NCC(=O)OCc1ccccc1)C(=O)OC(C)(C)C -29%
CCOc1ccccc1NC(=O)COC(=O)CC(C)(C)CC1=NS(=O)(=O)c2ccccc2N1 -22.2%
Cn1nnnc1SCC(=O)NNC(=O)c1ccc(Br)cc1 -20.3%
N#Cc1c(SCC(=O)Nc2nccs2)sc2c(O)cc(=O)[nH]c12 -20.5%
Cc1nc(NC(=O)c2cc3ccccc3o2)sc1C 7.97%
CCc1ccc(S(=O)(=O)c2ccc(-n3nc(C)cc3N)cc2)cc1 21.2%
O=C(c1ccc(Cl)cc1)C1CCCN(C(=O)c2csnn2)C1 (stereo unspecified) 9.65%
CCOC(=O)CC1C(=O)NCCN1C1CCCC1 (stereo unspecified) 3.55%
Cc1cc(N2CCN(C)CC2)nc2ccc(NC(=O)CCC(=O)NCCc3ccc(Cl)cc3)cc12 -21.9%
COC(=O)c1cc(S(=O)(=O)NCc2ccc(Br)cc2)c[nH]1 -13.8%
CC(=O)N1N=C(N)SC12CCCC2 -1.47%
O=C(O)CSCC(=O)Nc1ccc(Br)c(C(F)(F)F)c1 -21.2%
COc1ccc2c(CN3CCCC3)cc(=O)oc2c1 22.9%
CN(C)CCn1c(NCc2ccc3c(c2)OCO3)nc2ccccc21 2.08%
CCc1cc2ccc(OC)cc2nc1SCC(=O)Nc1cc(C)on1 1.38%
Cc1nn(-c2ccccc2)c2c1c(C)c(CCC(=O)NCC1CCCO1)c(=O)n2C (stereo unspecified) -0.213%
CCCCNC(=O)N1CCN(Cc2ccc(F)cc2)CC1 -9.24%
CCCNS(=O)(=O)c1cc2c3c(c1)C(C)C(=O)N3CCC2 (stereo unspecified) -20.1%
Cc1ccccc1CN1CCN(Cc2ccc3cccc(F)c3n2)CC1CCO (stereo unspecified) -26.9%
CNC(=O)CSc1nnc(-c2ccco2)n1-c1ccc(C)cc1 -17.9%
C[C@H]1CN([C@@H](C)CO)C(=O)c2cc(Br)cnc2O[C@H]1CN(C)C(=O)c1ccccn1 24.1%
Cc1ccc(NC(=O)CN2CCOCC2)cc1Cl 10.2%
O=C(Nc1ccccc1)c1cccc(Cn2cc(C(F)(F)F)ccc2=O)c1 -12.3%
Cc1ccc(CNC(=O)C2CCCN(c3nc4ccsc4c(=O)s3)C2)cc1 (stereo unspecified) 8.12%
C=CCn1ncc(OC)c(Cl)c1=O 9.56%
C=CC[C@@H](CC(=O)N(CCO)Cc1ccccc1)C(=O)N[C@H](COC(=O)[C@@H](CC=C)CC(=O)OC(C)(C)C)c1ccccc1 -2.59%
Cc1csc(CNc2ncnc3ccc(-c4cccc(Cl)c4)cc23)c1 -33.7%
COc1ccc(Cc2c(-c3cccc(Cl)c3)nc3ccc(C)cn23)c(C)c1 18.1%
NC(=O)NC(CC(=O)NCCc1ccc(S(N)(=O)=O)cc1)c1ccc(Cl)cc1 (stereo unspecified) -21.5%

As a working copy, 4 of the compounds above:
Activity change, negative = inhibition, inactive:
CCCCNC(=O)N1CCN(Cc2ccc(F)cc2)CC1 -9.24%
CCCNS(=O)(=O)c1cc2c3c(c1)C(C)C(=O)N3CCC2 (stereo unspecified) -20.1%
Cc1ccccc1CN1CCN(Cc2ccc3cccc(F)c3n2)CC1CCO (stereo unspecified) -26.9%
CNC(=O)CSc1nnc(-c2ccco2)n1-c1ccc(C)cc1 -17.9%

— PubChem BioAssay AID720591 (Broad Institute, 2013)
